Primary screen of a compound library

Measurements from “University of Dundee, Small-Polar-MMV Screening Library” (2021), ChEMBL document CHEMBL3988442.

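Viability assay of Plasmodium falciparum sporozoites; the read-out is not stated. The concentration is filed as 10 mM, unlikely as a test dose, so the dose is not known. Direction is inferred from retests: higher values go with lower viability. Strong results were mostly tested again. About 34,000 compounds were tested under these conditions; 0.84% (about 280) showed 50% or more at least once.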

Values are the deposited “Percent Effect”, in %.
How 0% and 100% were set is not recorded. Most values in the screen are low, and negative values occur.
The compounds are a random part of those screened.
Two or more numbers in one place are separate tests of the same structure; such repeats can differ widely.

- COCCN1CCN(Cc2cccc(OCC(N)=O)c2)CC1C (configuration not stated) : -8.824%
- COC(=O)CNC(=O)c1sccc1N(C)S(=O)(=O)c1ccc(Cl)cc1 : 5.998%
- Cc1nn(C)c(C)c1CN1CCCC1c1nccc(CN(C)C)n1 (configuration not stated) : 4.972%
- CSCC(CCO)NC(=O)Nc1cc(C)ccc1C (configuration not stated) : -11.45%
- CNC(=O)c1cc(C)nc(C2(C)CCCN2c2cc(C)ncn2)n1 (configuration not stated) : 19.38%
- O=C(Nc1ccccn1)N(CCO)Cc1ccsc1 : -0.8244%
- Cc1ccc2c(c1C)OCC2NCc1cccc(C#N)c1 (configuration not stated) : -7.436%
- O=C(CCSc1ccccc1)NS(=O)(=O)c1ccc2c(c1)OCCO2 : -6.07%
- Cc1cccc(CN2CCC3(CCCN(CC(=O)N(C)C)C3)C2)n1.O=C(O)C(F)(F)F (configuration not stated) : 4.003%
- [H][C@@]12CN(C(=O)c3ccco3)C[C@]1([H])C(=O)N(Cc1cccc(F)c1)C2 : 1.07%
- CC(OCC1CC1)C(=O)N1CCCN(c2ncccc2C#N)CC1 (configuration not stated) : 6.927%
- COCCOc1ncccc1NCc1nc2ccccc2n1C : 12.39% & -0.3581% & 11.74%
- COc1c(CNC2CCCOc3ccc(F)cc32)c(C(C)C)nn1C.Cl (configuration not stated) : 10.4%
- O=C(NCCc1ccc(F)cc1)NC1CCCc2c1cnn2CCO (configuration not stated) : -19.36% & -42.95% & -35.58%
- Cc1nc(C)c(C(=O)NCCNC(=O)Cc2cccc(F)c2)s1 : 0.919%
- CC(C)(C)c1n[nH]c(C2CN(CCc3cccs3)CCO2)n1 (configuration not stated) : 19.71% & -3.646% & 19.37%
- O=C(CCNc1ncccn1)N1CCC(Nc2cccnn2)CC1 : -17.02%
- Cc1nc(COc2ccc(CNCCn3cccn3)cc2)cs1 : 5.147%
- Cc1c(C(=O)N2CCC(c3nc(C)n4ccsc34)CC2)cnn1C : 10.33%
- CC(C)c1ccc2c(c1)C1(CC(=O)Nc3[nH]ncc31)C(=O)N2C (configuration not stated) : 0.4541%
- COc1cc2nc3n(c(=O)c2cc1OC)CCN(C(=O)C1CC1)CC3 : -0.8368%
- CC(=O)N1CC(=O)N(c2cnn(C)c2)CC12CCN(Cc1cccs1)C2.O=C(O)C(F)(F)F (configuration not stated) : -13.9%
- Cc1ncoc1C(=O)N1CC[C@@H](O)[C@@H](O)[C@H](N2CCC(F)(F)CC2)C1 : -9.061%
- O=C(CS(=O)(=O)Cc1cc(Cl)c2c(c1)OCCCO2)NCC1CC1 : 4.831%
- COCC(=O)NC[C@H]1CC[C@H](c2nnc(-c3cccnc3)o2)CC1 : 10.99%
- CC(C)(CO)Nc1c(NCc2ccncc2)c(=O)c1=O : -6.085%
- C[C@H]1CN(C(=O)c2cscn2)C[C@@]12CCN(c1ccsc1)C2=O : 5.584%
- Cc1ccc(-c2cc(N)c(=O)n(C(C)C(=O)NC(C)C)n2)o1 (configuration not stated) : 9.448%
- O=C(O)C(F)(F)F.O=C(O)C(F)(F)F.[H][C@@]12C[C@H](C(=O)Nc3cccnc3)CN(Cc3ccc(F)cc3)[C@]1([H])CCO2 : -17.27%
- Cc1ccc(C(=O)N2CCN(CCC(C)(C)C)CC2)c(=O)[nH]1 : -0.4831%
- Cc1nnc2n1CCN(Cc1ncc(-c3ccc(F)cc3)o1)C2 : 1.225%
- O=C(O)C(F)(F)F.c1cncc(N2CCCn3nnc(COCC4CC4)c3C2)c1 : 6.764%
- Cc1ccc(CNC(=O)Nc2nnc(C(C)C)s2)n1C : 4.491%
- CN1CCN(c2cc(N3CCCC3CO)ncn2)Cc2ccccc21 (configuration not stated) : 18.95%
- CCN1CCC2(CN(C(=O)N(C)C)CC23CCNCC3)C1=O.O=C(O)C(F)(F)F (configuration not stated) : 6.672%
- Cc1cc(C)n(CC2CN(Cc3nnsc3Cl)CCO2)n1 (configuration not stated) : 1.484%
- Cc1cc(C)c2[nH]c(C(=O)NCCN3CCNC3=O)c(C)c2c1 : -2.163%
- CCn1cc(CN2CCCC(CO)(CCc3ccccc3)C2)c(C)n1 (configuration not stated) : -3.691%
- Oc1nnc(-c2ccccc2)c2sc(N3CCCCC3)nc12 : 60.86% & 56.27%
- [H][C@@]12CN(C(=O)c3ccoc3C)C[C@]1([H])C(=O)N(Cc1csc(C)n1)C2 : -5.892%
- CN(C)c1cncc(C2CCCN(c3cnccn3)C2)n1 (configuration not stated) : 6.863%
- [H][C@]12CN(Cc3cccc4[nH]ccc34)C[C@]1([H])N(C1CCOCC1)C(=O)CO2 : 14.99%
- COCCN(Cc1cnn(C)c1)Cc1ccc(C)o1 : -6.563%
- Cc1csc(C2(NC(=O)CCc3ccncc3)CCCC2)n1 : -16.82%
- CC(Cn1cncc1-c1cnn(Cc2ccccc2)c1)N1CCCCC1.Cl (configuration not stated) : 8.149%
- Cc1cc2[nH]c(=O)c(=O)[nH]c2cc1S(=O)(=O)NC1CCC(C)CC1 (configuration not stated) : -9.4%
- CCNc1ccnc(NC2CCN(C(=O)c3ccc(C)cc3)CC2)n1 : 13.32%
- CCN1CCN(c2nc(C(C)C)nc3c(C)nn(CC)c23)CC1 : 7.197%
- COCc1ccccc1C(=O)N1CCN(C2=NCC(C)(C)S2)CC1 : -28.34%
- Cc1oc2c(c1C(=O)N1C[C@H](O)[C@]3(CCCO3)C1)CCCC2 : 2.67%
- CCOCCn1nc(C)cc1C(=O)N1CC[C@](O)(CC)[C@H](O)C1 : 1.14%
- CN1CC2(CCN(C(=O)c3ccc(-n4cnnc4)cc3Cl)CC2)OC1=O : -29.58%
- Cc1cc(NC(=O)C(C)N2CCN(c3nc(C)cs3)CC2)on1 (configuration not stated) : -12.03%
- CCCN(Cc1cccnc1)C1CC(C)(C)NC(C)(C)C1.O=C(O)CC(O)(CC(=O)O)C(=O)O : -6.36%
- CCOCCCn1c(NC(=O)c2ccc(C)nc2)nc2ccccc21 : -13.74%
- O=C(O)C(F)(F)F.O=C1COC2(CCN(CC3CC3)CC2)CN1c1ccccc1 : 1.216%

For reference, 4 entries once more:

| compound | effect |
|---|---|
| `O=C(CCNc1ncccn1)N1CCC(Nc2cccnn2)CC1` | -17.02 |
| `Cc1cc(C)n(CC2CN(Cc3nnsc3Cl)CCO2)n1` (configuration not stated) | 1.484 |
| `COCC(=O)NC[C@H]1CC[C@H](c2nnc(-c3cccnc3)o2)CC1` | 10.99 |
| `Cc1cccc(CN2CCC3(CCCN(CC(=O)N(C)C)C3)C2)n1.O=C(O)C(F)(F)F` (configuration not stated) | 4.003 |